Reference: article doi:10.1101/2022.11.29.518402 (bioRxiv, 2022)
No constants are given. Whether binding was seen depends on the method and setting. In cells and extracts the contact can be indirect. Some results given as binding are weak or reduced against the parent protein; the word gives no strength. Sequences can lack the tags named with a protein.

Amino acid sequences for entries named in this document (tags omitted). Residues count along the entry.
UniProt Q5UCC4, residues 26-262: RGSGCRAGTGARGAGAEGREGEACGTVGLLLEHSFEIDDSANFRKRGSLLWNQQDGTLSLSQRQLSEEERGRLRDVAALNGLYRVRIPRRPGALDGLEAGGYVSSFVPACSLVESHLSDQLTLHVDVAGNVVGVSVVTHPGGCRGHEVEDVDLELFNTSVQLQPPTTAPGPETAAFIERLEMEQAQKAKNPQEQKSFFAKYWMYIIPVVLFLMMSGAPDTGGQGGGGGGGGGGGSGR

Molecular target: T1, GFP-EMC2 (human) (UniProt Q15006)
T1 sequence: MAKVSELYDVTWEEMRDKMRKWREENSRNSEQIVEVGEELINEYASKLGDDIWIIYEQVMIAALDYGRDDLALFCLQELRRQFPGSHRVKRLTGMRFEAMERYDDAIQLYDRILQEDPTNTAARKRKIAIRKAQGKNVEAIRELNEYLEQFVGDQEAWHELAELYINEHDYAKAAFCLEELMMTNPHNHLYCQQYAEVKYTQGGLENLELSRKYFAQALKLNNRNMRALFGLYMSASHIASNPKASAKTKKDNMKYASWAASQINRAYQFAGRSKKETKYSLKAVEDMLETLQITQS
Assay: co-IP

- binding: binds
Substance: EMC10 (endogenous) (from UniProt Q5UCC4 26-262)
